Test system: SiHa (human cervical carcinoma) cells
Test: Cytotoxic activity, WST-1 assay, SiHa
Assay type: cell-based
Settings: 72 h, read-out: IC50 SiHa
Description: In vitro anticancer assays were performed in triplicate for the determination of mean values. The human cervical carcinoma SiHa, murine melanoma B16F10, chronic myelogenous leukemia (CML) K562, and Chang cell lines were cultured in minimum essential medium of Eagle at 37 °C in a […] atmosphere with 10% fetal bovine serum, 2 mM L-glutamine and 1% penicillin/streptomycin. Cells were trypsinized and seeded at a density of 5 × 10^4 cells/mL in a 96-well plate and incubated at 37 °C, […] atmosphere for 24 h. Thereafter the cells were treated with azetidin-2-one derivatives (dissolved in DMSO) at various concentrations between 312 nM–10 μM, and re-incubated for further 72 h. Wells containing the equal volume of the vehicle DMSO (1% v/v) were used as background (negative control). The culture medium was then removed and the cells washed with 100 μL phosphate buffered saline (PBS); then 10 μL WST-1 (Roche, USA) was added. Cells were incubated for 2 h in absence of light at 37°C, and absorbance was read subsequently. […] Afterwards, these values were used to assess half maximal inhibitory concentration (IC50) using Graph-Pad Prism software.

COc1cc2c(c(OC)c1OC)-c1ccc(OC)c(=O)cc1[C@@H](NC(C)=O)CC2 [Colchicine, reference compound]
IC50: 2500 ± 500 nM
